Results reported in the supplement of paper PMC5407854, “Inhibitor of ppGalNAc-T3-mediated O-glycosylation blocks cancer cell invasiveness and lowers FGF23 levels” (eLife, 2017).
This is one part of the list. Most entries show no effect beyond the scatter of the controls.

Test system: ppGalNAc-T2 sensor
Assay: T2 sensor activation Q score (MG/GFP ratio z-score vs DMSO controls) (SD units); higher = more sensor activation (inhibition of ppGalNAc-T2 glycosylation)
Settings: HEK293 sensor cells; 10 µM; 6 h
Description: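 Cells were treated with compound at 10 uM for 6 h, then MG/GFP ratio was read by flow cytometry (10,000 cells per well, duplicate wells). Q = (R - R_neg)/SD_neg relative to DMSO vehicle controls; the signal rises when the glycosyltransferase is inhibited.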

Structure (SMILES) | T2 sensor activation Q score
Fc1ccc(N2CCN(Cc3ccc(F)cc3F)CC2)cc1 | 0.04
COc1ccc(CN2CCN(c3ccccc3)CC2)c(OC)c1C | -0.715
COc1ccc(Br)cc1CN1CCN(c2ccc(F)cc2)CC1 | 1.99
Clc1cccc(N2CCN(Cc3ccc4c(c3)OCO4)CC2)c1 | 0.49
COc1ccc(CN2CCN(c3cccc(Cl)c3)CC2)c(OC)c1 | 1.29
NCCc1nc2ccccc2[nH]1 | -0.065
Cc1ccccc1CN1CCN(c2ccccc2C)CC1 | 0.325
COc1cc(OC)c(CN2CCN(c3ccccc3)CC2)cc1Br | -0.495
COc1ccccc1N1CCN(Cc2ccccc2C)CC1 | -0.175
C/C(=C\c1ccc(Cl)cc1)[N+](=O)[O-] | -0.215
COc1ccc(CN2CCN(c3ccccc3)CC2)c(C)c1C | -0.825
O=C1CC(=O)N(c2ccc(Br)cc2)C(=O)N1 | -0.435
Cc1ccsc1CN1CCN(C)CC1 | -0.01
Fc1ccc(N2CCN(Cc3ccccc3)CC2)cc1 | -0.98
Cc1cccc(N2CCN(Cc3ccc(F)cc3)CC2)c1C | -0.91
COc1cc(Br)c(CN2CCN(c3ccccc3)CC2)cc1OC | -0.39
CCOc1ccccc1N1CCN(Cc2ccccc2Cl)CC1 | 0.175
COc1cc(C)c(CN2CCN(c3ccc(F)cc3)CC2)cc1C | 0.525
CN1CCN(Cc2ccc3c(c2)OCO3)CC1 | -1.16
COc1cccc(N2CCN(Cc3ccc(Br)cc3)CC2)c1 | -0.05

Given tab-delimited: part of the list above
Structure (SMILES)	T2 sensor activation Q score
Fc1ccc(N2CCN(Cc3ccc(F)cc3F)CC2)cc1	0.04
C/C(=C\c1ccc(Cl)cc1)[N+](=O)[O-]	-0.215
COc1cc(Br)c(CN2CCN(c3ccccc3)CC2)cc1OC	-0.39

(continued)

Structure (SMILES) | T2 sensor activation Q score
CCOc1ccc(CN2CCN(c3ccccc3C)CC2)cc1 | -0.495
CCN1CCN(Cc2ccc(OC)c(C)c2C)CC1 | -1.11
COc1ccccc1CN1CCN(c2ccccc2OC)CC1 | 0.54
CCN1CCN(Cc2cc(C)ccc2C)CC1 | 0.965
COc1ccc(CN2CCN(c3cccc(C)c3C)CC2)cc1 | 0.185
COc1cccc(CN2CCN(c3ccccc3Cl)CC2)c1 | -0.46
COc1ccc(CN2CCN(C)CC2)c(OC)c1 | -1.02
CCN1CCN(Cc2ccc(OC)c(C)c2)CC1 | -0.415
COc1ccc(CNCCc2ccccc2)cc1C | 0.72
CCc1ccc(CN2CCN(C)CC2)cc1 | -0.81
COc1ccc(OC)c(CN2CCN(c3ccccc3C)CC2)c1 | -0.345
COc1ccc(CN2CCN(c3ccccc3OC)CC2)cc1C | 0.15
Cc1ccc(CN2CCN(C)CC2)c(C)c1 | -0.15
CCOc1ccccc1N1CCN(Cc2ccc(F)c(F)c2)CC1 | -0.065
CCOc1ccc(C(CN)CC(=O)O)cc1 (stereo not given) | -1.86
CCCCOc1ccc(CN2CCN(CC)CC2)cc1 | -0.315
COc1ccc(CN2CCN(c3ccc(F)cc3)CC2)cc1C | -0.175
COc1ccccc1CN1CCN(c2ccc([N+](=O)[O-])cc2)CC1 | -0.67
Clc1ccccc1N1CCN(Cc2ccccc2)CC1 | -0.145
CCOc1ccc(/C=C/[N+](=O)[O-])cc1 | -0.095
